Source: PMC12811241
These are yes or no findings as the source states them, for the method shown. Binding seen in cells or lysates may run through a third protein. Some entries that bind do so weakly or less than the wild type.

Amino acid sequences for entries named in this document (tags omitted).
UniProt Q9UHP3: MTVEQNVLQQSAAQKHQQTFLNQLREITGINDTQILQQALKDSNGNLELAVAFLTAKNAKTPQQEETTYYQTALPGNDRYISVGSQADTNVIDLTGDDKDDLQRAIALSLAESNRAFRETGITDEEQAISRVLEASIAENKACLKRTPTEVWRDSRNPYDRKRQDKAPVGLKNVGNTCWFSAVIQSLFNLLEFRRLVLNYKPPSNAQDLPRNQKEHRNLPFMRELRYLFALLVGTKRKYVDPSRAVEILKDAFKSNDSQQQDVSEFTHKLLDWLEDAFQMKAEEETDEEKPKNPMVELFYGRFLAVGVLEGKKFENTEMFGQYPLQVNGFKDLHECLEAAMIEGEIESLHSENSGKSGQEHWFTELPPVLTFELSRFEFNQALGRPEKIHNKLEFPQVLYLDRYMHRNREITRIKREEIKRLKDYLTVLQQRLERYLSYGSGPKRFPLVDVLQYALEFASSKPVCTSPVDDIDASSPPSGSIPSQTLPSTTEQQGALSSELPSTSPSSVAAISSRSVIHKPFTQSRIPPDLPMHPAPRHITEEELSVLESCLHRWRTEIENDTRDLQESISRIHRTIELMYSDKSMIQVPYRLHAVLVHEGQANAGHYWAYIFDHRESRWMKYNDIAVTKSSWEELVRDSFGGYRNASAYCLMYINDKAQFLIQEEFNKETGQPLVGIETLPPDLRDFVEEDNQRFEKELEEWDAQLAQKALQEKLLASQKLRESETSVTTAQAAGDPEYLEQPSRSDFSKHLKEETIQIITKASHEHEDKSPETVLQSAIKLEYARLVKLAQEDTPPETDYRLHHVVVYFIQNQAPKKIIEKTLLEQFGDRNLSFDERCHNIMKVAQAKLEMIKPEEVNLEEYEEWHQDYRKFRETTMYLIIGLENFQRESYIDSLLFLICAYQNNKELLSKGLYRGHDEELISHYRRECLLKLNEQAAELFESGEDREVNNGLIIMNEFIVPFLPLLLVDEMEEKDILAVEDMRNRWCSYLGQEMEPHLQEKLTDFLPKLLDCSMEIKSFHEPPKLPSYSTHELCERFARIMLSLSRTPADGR

B1: TAB2 (protein, UniProt Q9NYJ8 1-693)
chain: MAQGSHQIDFQVLHDLRQKFPEVPEVVVSRCMLQNNNNLDACCAVLSQESTRYLYGEGDLNFSDDSGISGLRNHMTSLNLDLQSQNIYHHGREGSRMNGSRTLTHSISDGQLQGGQSNSELFQQEPQTAPAQVPQGFNVFGMSSSSGASNSAPHLGFHLGSKGTSSLSQQTPRFNPIMVTLAPNIQTGRNTPTSLHIHGVPPPVLNSPQGNSIYIRPYITTPGGTTRQTQQHSGWVSQFNPMNPQQVYQPSQPGPWTTCPASNPLSHTSSQQPNQQGHQTSHVYMPISSPTTSQPPTIHSSGSSQSSAHSQYNIQNISTGPRKNQIEIKLEPPQRNNSSKLRSSGPRTSSTSSSVNSQTLNRNQPTVYIAASPPNTDELMSRSQPKVYISANAATGDEQVMRNQPTLFISTNSGASAASRNMSGQVSMGPAFIHHHPPKSRAIGNNSATSPRVVVTQPNTKYTFKITVSPNKPPAVSPGVVSPTFELTNLLNHPDHYVETENIQHLTDPTLAHVDRISETRKLSMGSDDAAYTQALLVHQKARMERLQRELEIQKKKLDKLKSEVNEMENNLTRRRLKRSNSISQIPSLEEMQQLRSCNRQLQIDIDCLTKEIDLFQARGPHFNPSAIHNFYDNIGFVGPVPPKPKDQRSIIKTPKTQDTEDDEGAQWNCTACTFLNHPALIRCEQCEMPRHF
B2: TAK1 (protein, UniProt O43318 1-606)
chain: MSTASAASSSSSSSAGEMIEAPSQVLNFEEIDYKEIEVEEVVGRGAFGVVCKAKWRAKDVAIKQIESESERKAFIVELRQLSRVNHPNIVKLYGACLNPVCLVMEYAEGGSLYNVLHGAEPLPYYTAAHAMSWCLQCSQGVAYLHSMQPKALIHRDLKPPNLLLVAGGTVLKICDFGTACDIQTHMTNNKGSAAWMAPEVFEGSNYSEKCDVFSWGIILWEVITRRKPFDEIGGPAFRIMWAVHNGTRPPLIKNLPKPIESLMTRCWSKDPSQRPSMEEIVKIMTHLMRYFPGADEPLQYPCQYSDEGQSNSATSTGSFMDIASTNTSNKSDTNMEQVPATNDTIKRLESKLLKNQAKQQSESGRLSLGASRGSSVESLPPTSEGKRMSADMSEIEARIAATTAYSKPKRGHRKTASFGNILDVPEIVISGNGQPRRRSIQDLTVTGTEPGQVSSRSSSPSVRMITTSGPTSEKPTRSHPWTPDDSTDTNGSDNSIPMAYLTLDHQLQPLAPCPNSKESMAVFEQHCKMAQEYMKVQTEIALLLQRKQELVAELDQDEKDQQNTSRLVQEHKKLLDENKSLSTYYQQCKKQLEVIRSQQQKRQGTS
B3: TAB3 (protein, UniProt Q8N5C8 1-712)
chain: MAQSSPQLDIQVLHDLRQRFPEIPEGVVSQCMLQNNNNLEACCRALSQESSKYLYMEYHSPDDNRMNRNRLLHINLGIHSPSSYHPGDGAQLNGGRTLVHSSSDGHIDPQHAAGKQLICLVQEPHSAPAVVAATPNYNPFFMNEQNRSAATPPSQPPQQPSSMQTGMNPSAMQGPSPPPPPPSYMHIPRYSTNPITVTVSQNLPSGQTVPRALQILPQIPSNLYGSPGSIYIRQTSQSSSGRQTPQSTPWQSSPQGPVPHYSQRPLPVYPHQQNYQPSQYSPKQQQIPQSAYHSPPPSQCPSPFSSPQHQVQPSQLGHIFMPPSPSTTPPHPYQQGPPSYQKQGSHSVAYLPYTASSLSKGSMKKIEITVEPSQRPGTAINRSPSPISNQPSPRNQHSLYTATTPPSSSPSRGISSQPKPPFSVNPVYITYTQPTGPSCTPSPSPRVIPNPTTVFKITVGRATTENLLNLVDQEERSAAPEPIQPISVIPGSGGEKGSHKYQRSSSSGSDDYAYTQALLLHQRARMERLAKQLKLEKEELERLKSEVNGMEHDLMQRRLRRVSCTTAIPTPEEMTRLRSMNRQLQINVDCTLKEVDLLQSRGNFDPKAMNNFYDNIEPGPVVPPKPSKKDSSDPCTIERKARRISVTSKVQADIHDTQAAAADEHRTGSTQSPRTQPRDEDYEGAPWNCDSCTFLNHPALNRCEQCEMPRYT

Columns and labels:
[1] = biological target: T1, TAB2 (human (endogenous in HNSCC cells)) (UniProt Q9NYJ8); experiment: co-IP; HNSCC cell lysates incubated with anti-USP25 antibody (or anti-TAB2 antibody, Fig. 6B) or IgG, washed with lysis buffer, bead-bound proteins immunoblotted; endogenous proteins
T1 sequence: B1 chain

[2] = biological target: ubiquitin specific peptidase 25 (USP25) (human (endogenous in HNSCC cells)) (UniProt Q9UHP3); experiment: as above

Molecule	binding [1]	binding [2]
ubiquitin specific peptidase 25 (USP25) (from UniProt Q9UHP3 1-1055) (enzyme)	binds	–
B1	–	binds
B2	–	no binding
B3	–	no binding
